Values from PubChem BioAssay AID1508597 (Cure First, 2020).
This is an unselected part of the about 2,100 reagents, in one setting of the screen. 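Calls flag viability under 80% in either arm, not effects specific to rucaparib; the reference for percent is not stated.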 Not stated in the record: the 100% reference.

Purpose: 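Knock-downs altering ovarian cancer cell survival with or without PARP inhibitor rucaparib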 (primary screen)
Cells: human ovarian carcinoma lines grown from tumours: OCI-P5x (papillary serous) and OCI-C5x (clear cell)
Knock-down reagent: siRNA pool against human genes, 1.25 pmol siRNA per well
Time to read-out: 72 h or 96 h, depending on the cell culture
Treatment: rucaparib 20 µM (about IC30) or vehicle, present until read-out
Rucaparib or vehicle: Vehicle
Cell line: OCI-C5x (clear cell)
Read-out: 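ATP luminescence measured at 72 or 96 h according to the culture, then normalised and expressed as percent viability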
Scale: viability, normalised: higher = more viable cells remaining
Active means: 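Active when normalised viability falls below 80 percent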
Meaning of the calls: active = viability under 80%; inactive = viability 80% or more

gene symbol	technical replicate	viability, normalised (%)	outcome
DDX46	1	44.2	active
DDX46	2	51.3	active
DDX46	3	50	active
MYO6	1	25.4	active
MYO6	2	28.6	active
MYO6	3	44.7	active
NRBP2	1	67	active
NRBP2	2	56.7	active
NRBP2	3	50.6	active
KMT2D	1	37.2	active
KMT2D	2	37	active
KMT2D	3	54.1	active
ALPK3	1	39.2	active
ALPK3	2	48	active
ALPK3	3	41.2	active
DDA1	1	65.5	active
DDA1	2	56.5	active
DDA1	3	44.1	active
ARID2	1	43.7	active
ARID2	2	41.8	active
ARID2	3	44.5	active
POLD2	1	38.7	active
POLD2	2	48.1	active
POLD2	3	34.7	active

Ordered by “viability, normalised (%)” (ascending): 3 of the entries above.
gene symbol	technical replicate	viability, normalised (%)	outcome
POLD2	1	38.7	active
ARID2	3	44.5	active
POLD2	2	48.1	active
